Experimental data: PubChem BioAssay AID504784 (Drosophila RNAi Screening Center, 2011)
In all, the deposit lists about 17,000 reagents; below is a random part of those with a known target gene and a result. 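Each column is one replicate's B-score; the combined score over replicates was not deposited, so single values may mislead.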 Names joined by + are all predicted targets of the reagent.

Aim: 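Fly genes whose silencing alters how much lipid cells keep in droplets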 (primary screen)
Cells: Drosophila Kc167 embryonic cells
Knock-down reagent: long dsRNA against Drosophila genes, about 250 ng dsRNA per well
Duration: 4 days
Conditions: cells fed 400 µM oleic acid bound to BSA
Detection: 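Cells imaged and segmented; ratio of lipid droplet area to nuclear area, log-transformed, then normalised as a B-score over the screen; higher means more stored lipid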
Reading the numbers: droplet/nuclear area B-score: higher = more stored lipid (overstorage)

| target gene | amplicon | droplet/nuclear area B-score, replicate 1 | droplet/nuclear area B-score, replicate 2 | droplet/nuclear area B-score, replicate 3 |
| --- | --- | --- | --- | --- |
| CAHbeta | DRSC14449 | -0.17 | 11.8 | – |
| lncRNA:CR42862 + CG33229 | DRSC08497 | -0.259 | -1.02 | – |
| dmrt99B | DRSC15045 | 0.465 | 1.15 | – |
| dmrt99B | DRSC22977 | 1.79 | 1.34 | – |
| CG14518 | DRSC14870 | 1.22 | -1.06 | – |
| CG30022 | DRSC22405 | -0.206 | 0.0325 | – |
| CG2269 | DRSC06833 | -0.533 | 0.131 | – |
| CG10663 | DRSC09770 | -0.0252 | 0.799 | – |
| Ufsp2 | DRSC10231 | -0.581 | -4.79 | 0.0912 |
| CG2841 | DRSC17699 | -0.0538 | -0.537 | – |
| CG2841 | DRSC18824 | -0.551 | -0.0408 | – |
| CG2841 | DRSC22106 | -0.229 | 0.616 | – |
| Pi3K68D | DRSC11253 | -0.471 | 0.37 | – |
| CG42271 | DRSC19809 | -0.0205 | 0.122 | -0.00731 |
| CG42271 | DRSC22894 | 0.577 | -0.354 | – |
| CG8611 | DRSC19340 | 0.889 | 0.712 | – |
| CG7715 | DRSC16301 | -0.512 | -0.0279 | – |
| Nplp3 | DRSC09944 | 0.151 | 0.112 | – |
| Den1 | DRSC07195 | -0.0223 | 0.823 | – |
| CG13563 | DRSC22153 | 1.2 | -0.845 | – |
| Recs1 | DRSC16545 | 0.636 | -0.926 | – |
| CG44774 | DRSC18342 | -1.25 | -0.319 | – |
| CG31820 | DRSC21318 | 0.174 | 1.23 | – |
| rols | DRSC09873 | -1.36 | -2.16 | – |
| rols | DRSC10254 | -0.0184 | -0.237 | – |
| rols | DRSC10536 | 0.161 | 0.869 | – |
| CG1603 | DRSC06602 | -1.35 | -2.6 | – |
| Lcp1Psi | DRSC05105 | -0.313 | -0.495 | – |
| VhaAC45 | DRSC07058 | -0.62 | -0.167 | – |
| CG14823 | DRSC10194 | 0.189 | 0.649 | – |
| EMC10 | DRSC11850 | 0.329 | 0.585 | – |
| lic | DRSC20347 | -0.114 | 0.636 | -1.34 |
| CR11700 (retired record) | DRSC17794 | -0.0678 | 0.114 | – |
| Mal-A2 | DRSC07460 | 2.55 | 0.00312 | – |
| Gprk1 | DRSC20732 | -0.0925 | -0.511 | – |
| Gprk1 | DRSC20916 | -0.181 | -2.27 | – |
| Sap30 | DRSC19916 | -0.194 | -0.799 | – |
| zormin | DRSC07969 | 0.0534 | 1.53 | – |
| zormin | DRSC08210 | 0.0398 | 0.029 | – |
| zormin | DRSC08212 | -2.05 | -0.384 | – |
| zormin | DRSC08213 | -1.25 | -2.02 | – |
| zormin | DRSC08297 | 0.114 | -0.424 | – |
| zormin | DRSC08571 | 3.4 | 3.64 | – |
| zormin | DRSC22483 | -1.18 | -1.28 | – |
| Nop56 | DRSC14699 | -1.35 | 1.62 | – |
| Dup99B | DRSC22877 | -1.02 | 0.859 | – |
| slim | DRSC06921 | -1.15 | 0.981 | – |
| CheB42b | DRSC22878 | -1.01 | 0.633 | – |
| CG9948 | DRSC11104 | 0.525 | -1.09 | – |
| CG15317 | DRSC18005 | 0.301 | 0.532 | 0.23 |
| pit | DRSC17025 | 0.498 | 0.045 | – |
| pit | DRSC22798 | -0.049 | -0.525 | – |
| Mo25 | DRSC11224 | 1.33 | -0.287 | 0.523 |
| CG31697 | DRSC22273 | -0.362 | -0.57 | – |
| lace | DRSC03564 | 0.00234 | 0.302 | – |
| Hen1 | DRSC06139 | -3.86 | -0.24 | – |
| Hen1 | DRSC06140 | 0.342 | -2.73 | – |
| CG32982 | DRSC02677 | -1.71 | -0.0598 | – |
| CG32982 | DRSC03268 | -0.694 | 0.0924 | -0.185 |
| CG32982 | DRSC03269 | -0.228 | 2.55 | – |
| CG32982 | DRSC21912 | 4.25 | 1.47 | – |
| ppk16 | DRSC02736 | -1.04 | 0.638 | – |
| TrxT | DRSC22182 | -0.958 | -1.63 | – |
| TrxT | DRSC23117 | -0.582 | -0.685 | – |
| ple | DRSC11383 | -1.72 | -2.47 | – |
| CG30195 | DRSC04155 | -0.0227 | 2.64 | – |
| Gfrl | DRSC15197 | -0.0366 | 0.0964 | – |
| Gfrl | DRSC15199 | -1.4 | – | – |
| Gfrl | DRSC15565 | -0.0152 | -1.34 | – |
| Gfrl | DRSC15719 | -0.284 | -0.241 | – |
| CG1840 | DRSC19806 | 0.345 | -1.77 | 0.0851 |
| CG30492 (retired record) + M7BP | DRSC05053 | -0.0577 | -1.05 | – |
| CG30492 (retired record) + M7BP | DRSC05054 | -0.631 | -1.21 | – |
| CG30492 (retired record) + M7BP | DRSC06701 | 0.0128 | 0.287 | – |
| CG30492 (retired record) + M7BP | DRSC06816 | 0.232 | -0.794 | – |
| CG33639 | DRSC19966 | 0.91 | -0.0912 | 0.0337 |
| CG33639 | DRSC22820 | -1.1 | -2.81 | – |
| Klc | DRSC11203 | 0.145 | -0.157 | – |
| CG42758 | DRSC10021 | 1.18 | -0.249 | – |
| Ibf2 | DRSC16551 | 0.302 | -0.333 | – |
| CG13679 | DRSC10037 | -0.0647 | -0.869 | 4.54 |
| CG13679 | DRSC22749 | 3.82 | -0.477 | – |
| CG16956 | DRSC02544 | -0.588 | -1.27 | – |
